From PMC9295971
These are yes or no findings as the source states them, for the method shown. Binding seen in cells or lysates may run through a third protein. Some binding calls cover weakened binding; strength is not graded here.

Sequences of proteins named here, by UniProt entry; tags and fusion partners are left off.
UniProt P43354: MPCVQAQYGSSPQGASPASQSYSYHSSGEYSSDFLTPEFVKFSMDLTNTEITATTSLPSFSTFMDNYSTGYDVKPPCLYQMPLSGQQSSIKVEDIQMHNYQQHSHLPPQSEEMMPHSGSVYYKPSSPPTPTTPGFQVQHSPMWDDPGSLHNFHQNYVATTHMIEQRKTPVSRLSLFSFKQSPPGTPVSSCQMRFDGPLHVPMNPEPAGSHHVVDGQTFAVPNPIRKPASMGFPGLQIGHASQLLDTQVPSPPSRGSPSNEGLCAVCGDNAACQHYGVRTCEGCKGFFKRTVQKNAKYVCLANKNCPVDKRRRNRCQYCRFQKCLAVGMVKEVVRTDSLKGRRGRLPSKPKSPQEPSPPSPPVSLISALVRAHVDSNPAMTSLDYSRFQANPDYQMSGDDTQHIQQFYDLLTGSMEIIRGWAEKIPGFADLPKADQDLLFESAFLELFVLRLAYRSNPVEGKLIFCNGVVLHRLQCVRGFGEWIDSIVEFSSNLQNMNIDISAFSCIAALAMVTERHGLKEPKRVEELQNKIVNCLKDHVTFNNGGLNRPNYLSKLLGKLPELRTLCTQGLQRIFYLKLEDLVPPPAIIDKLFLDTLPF
UniProt Q9UKL0: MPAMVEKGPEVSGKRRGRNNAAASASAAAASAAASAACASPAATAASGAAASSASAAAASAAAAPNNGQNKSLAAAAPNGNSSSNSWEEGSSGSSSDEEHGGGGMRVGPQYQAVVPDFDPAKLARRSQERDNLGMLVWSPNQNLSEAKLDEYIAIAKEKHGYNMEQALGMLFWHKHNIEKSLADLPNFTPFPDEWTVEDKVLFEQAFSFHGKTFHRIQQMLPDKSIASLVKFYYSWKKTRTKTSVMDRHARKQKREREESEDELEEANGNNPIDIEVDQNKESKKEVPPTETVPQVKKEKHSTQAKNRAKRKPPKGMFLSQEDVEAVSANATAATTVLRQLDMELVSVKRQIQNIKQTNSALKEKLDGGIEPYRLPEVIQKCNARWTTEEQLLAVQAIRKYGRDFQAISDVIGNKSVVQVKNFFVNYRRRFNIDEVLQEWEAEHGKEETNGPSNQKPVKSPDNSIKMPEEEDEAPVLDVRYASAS
UniProt Q96KQ7: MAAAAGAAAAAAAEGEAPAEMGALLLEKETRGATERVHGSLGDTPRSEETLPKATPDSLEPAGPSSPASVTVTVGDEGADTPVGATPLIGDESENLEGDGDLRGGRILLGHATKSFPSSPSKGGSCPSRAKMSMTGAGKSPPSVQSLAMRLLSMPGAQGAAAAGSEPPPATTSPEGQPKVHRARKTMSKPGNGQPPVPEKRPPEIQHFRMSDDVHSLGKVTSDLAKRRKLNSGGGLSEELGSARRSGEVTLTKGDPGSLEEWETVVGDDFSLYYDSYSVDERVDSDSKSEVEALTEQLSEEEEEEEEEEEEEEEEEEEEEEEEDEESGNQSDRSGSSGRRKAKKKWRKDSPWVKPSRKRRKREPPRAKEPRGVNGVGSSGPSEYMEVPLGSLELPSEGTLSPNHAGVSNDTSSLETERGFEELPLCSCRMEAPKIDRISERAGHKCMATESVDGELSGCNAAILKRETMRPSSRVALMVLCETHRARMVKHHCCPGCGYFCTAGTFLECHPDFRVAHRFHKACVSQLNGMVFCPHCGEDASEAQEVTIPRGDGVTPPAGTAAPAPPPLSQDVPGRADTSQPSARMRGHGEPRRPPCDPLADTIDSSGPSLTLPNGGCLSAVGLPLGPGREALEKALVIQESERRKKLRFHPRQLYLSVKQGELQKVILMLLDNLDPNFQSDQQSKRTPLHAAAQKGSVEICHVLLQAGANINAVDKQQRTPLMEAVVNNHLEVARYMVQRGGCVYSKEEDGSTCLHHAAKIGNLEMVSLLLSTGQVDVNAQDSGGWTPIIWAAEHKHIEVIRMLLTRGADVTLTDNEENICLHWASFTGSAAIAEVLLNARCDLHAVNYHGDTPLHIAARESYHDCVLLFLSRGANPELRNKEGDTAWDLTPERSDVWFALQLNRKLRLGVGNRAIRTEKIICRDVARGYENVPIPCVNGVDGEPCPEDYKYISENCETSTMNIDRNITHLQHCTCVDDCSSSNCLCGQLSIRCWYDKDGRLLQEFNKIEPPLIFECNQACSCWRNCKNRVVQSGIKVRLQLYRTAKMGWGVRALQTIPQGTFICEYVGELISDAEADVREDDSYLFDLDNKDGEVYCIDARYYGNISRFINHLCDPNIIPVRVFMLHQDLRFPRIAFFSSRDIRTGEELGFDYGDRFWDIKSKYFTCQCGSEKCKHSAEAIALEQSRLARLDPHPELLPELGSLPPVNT
UniProt Q13547: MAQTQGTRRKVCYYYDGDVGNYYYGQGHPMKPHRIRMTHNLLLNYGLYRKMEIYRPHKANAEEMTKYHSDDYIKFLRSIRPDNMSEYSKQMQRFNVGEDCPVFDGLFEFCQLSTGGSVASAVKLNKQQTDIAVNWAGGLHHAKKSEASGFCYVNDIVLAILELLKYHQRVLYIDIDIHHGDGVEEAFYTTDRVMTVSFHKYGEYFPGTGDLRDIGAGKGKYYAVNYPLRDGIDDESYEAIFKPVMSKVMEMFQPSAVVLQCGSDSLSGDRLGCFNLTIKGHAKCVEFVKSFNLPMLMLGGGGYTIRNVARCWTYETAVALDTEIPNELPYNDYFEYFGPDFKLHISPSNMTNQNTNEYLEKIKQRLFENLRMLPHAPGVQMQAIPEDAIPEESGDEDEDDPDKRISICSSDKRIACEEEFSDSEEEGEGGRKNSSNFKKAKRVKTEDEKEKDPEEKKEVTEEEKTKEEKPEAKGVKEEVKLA

How the values were obtained:
[1] = target: 3X-FLAG-tagged Nurr1 (NR4A2), wild type (human) (UniProt P43354); experiment: co-IP; total protein lysates of HC69-3X-FLAG-Nurr1 cells (HC69-3X-FLAG-vector cells as control) precipitated with mouse monoclonal anti-FLAG antibody on magnetic beads; Western blot of the products; cells untreated, TNF-α 400 pg/ml for 4 hr or 24 hr, or 24 hr TNF-α followed by a 24 hr chase
[2] = target: Nurr1 (NR4A2), endogenous (human (endogenous in HC69)) (UniProt P43354); experiment: co-IP; total protein extracts of HC69 cells expressing control shRNA or NIK shRNAs precipitated with mouse monoclonal anti-Nurr1 antibody (control mouse IgG); Western blot for Nurr1, phospho-serine and CoREST; cells untreated, TNF-α 400 pg/ml for different times, or 24 hr TNF-α followed by a 24 hr chase

Substance | binding [1] | binding [2]
CoREST (from UniProt Q9UKL0 1-485) | binds | binds
euchromatic histone lysine N-methyltransferase 2 (G9a; EHMT2) (from UniProt Q96KQ7 1-1210) | binds | –
histone deacetylase 1 (HDAC1) (from UniProt Q13547 1-482) | binds | –
